# Primary screen of a compound library

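Assay on Mycobacterium tuberculosis, filed only as a heat shock assay from Cornell; the read-out is not stated. The concentration is filed as 10 mM, unlikely as a test dose, so the dose is not known. Direction is inferred from retests: higher values go with stronger inhibition. About 69,000 compounds were tested under these conditions; 1.4% (about 930) showed 50% or more at least once.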

The filed quantity is “Percent Effect” (%). How 0% and 100% were set is not recorded. Most values in the screen are low, and negative values occur. This is an unselected part of the compounds tested.

| # | Compound | percent effect |
|---|---|---|
| 1 | `N#Cc1cn(CCCN2CCc3ccccc32)c(=O)[nH]c1=O` | 2.461% |
| 2 | `Cc1nn(C)cc1NC(=O)CC1CCN(C(=O)Cc2ccccc2)CC1` | -27.24% |
| 3 | `CCOC(=O)CNC(=O)N1CCOC(CCc2ccccc2)C1` (stereo not given) | -14.21% |
| 4 | `COc1cccc(CC2CCCN2Cc2nccn2C)c1` (stereo not given) | 0.2214% |
| 5 | `O=C(NCc1ccc(-n2cncn2)nc1)N(CC1CCOC1)C1CC1` (stereo not given) | 17.09% |
| 6 | `Cc1cc(C)c2nc(CN3CCC(CN)CC3)cc(O)c2c1` | -1.422% |
| 7 | `CC(C)NC(=O)N1C[C@@H](F)[C@@H](OCc2nc3ccccc3o2)C1` | -2.467% |
| 8 | `CC1CCN(C(=O)CSCc2noc(C(C)C)n2)CC1` | 6.101% |
| 9 | `O=C(N[C@@H]1CCC[C@@H](N2CCOCC2)[C@@H]1O)c1cc2ccccc2[nH]1` | -4.045% |
| 10 | `Cc1nc(-c2c(C)noc2C)cc(C2CCN(S(=O)(=O)N(C)C)CC2)n1` | 1.262% |
| 11 | `CCn1nc(C)c2ccn(CC(=O)NCCN3CCCCC3)c(=O)c21` | 14.65% |
| 12 | `COc1cc(Cl)cc(CN2CCCC(N3CCCC3)C2)c1OC` (stereo not given) | 98.75% |
| 13 | `COCC(=O)N1CCc2ccc(=O)n(Cc3csc(C)n3)c2CC1.O=C(O)C(F)(F)F` | -1.703% |
| 14 | `CCOc1ccc(NC(=O)N(CCC#N)Cc2ccccn2)cc1F` | -15.1% |
| 15 | `COc1ccccc1Cc1cncc(N2CC(C(=O)O)C2)n1.Cl` | 2.257% |
| 16 | `CC(=O)Nc1ccc(CCC2(NC(=O)C3CCCO3)CCCCC2)cn1` (stereo not given) | -11.05% |
| 17 | `C[C@@H]1CN(C2CCCCC2)CC[C@@]1(O)C1CCOCC1` | 2.681% |
| 18 | `O=S(=O)(NCCC(O)c1cccs1)c1ccccc1Cl` (stereo not given) | 1.47% |
| 19 | `O=C(c1ccc2occc2c1)N1CCC(C(=O)O)(n2cccn2)CC1` | 8.83% |
| 20 | `[H][C@@]12CCN(C(=O)Cc3ccccc3C)C[C@]1(COC)CCO2` | -10.52% |
| 21 | `CNc1cccc(C2CN(C(=O)CNS(C)(=O)=O)CCO2)n1` (stereo not given) | -8.823% |
| 22 | `CN(c1ncnc2ccccc12)C1CCCN(c2cccnn2)C1` (stereo not given) | -6.926% |
| 23 | `Cc1oncc1C(=O)NCc1cc(=O)n2c(n1)CN(CC1CC1)CCC2.O=C(O)C(F)(F)F` | -32.57% |
| 24 | `O=C(c1ccsc1)N1CCc2c(CNc3nccs3)n[nH]c2C1` | 16.33% |
| 25 | `COc1ccc(-n2nc(C(C)C)nc2COC(C)C)cc1` | -26.16% |
| 26 | `CN1CCCC1CNC(=O)CCCOc1cccc(Br)c1` (stereo not given) | -24.67% |
| 27 | `CC(=O)N1CCN([C@@H]2CN(C(=O)c3ccccc3)C[C@H]2O)CC1` | 1.235% |
| 28 | `CC(C)N1CC(C(=O)NCCOc2ccc3c(c2)OCO3)CC1=O` (stereo not given) | 0.3158% |
| 29 | `CC1(C)CN(C(=O)NCCc2ccn(-c3ccccc3)n2)CCO1` | -7.58% |
| 30 | `O=C(NCCO)Nc1ccc(Br)c(F)c1` | -1.354% |
| 31 | `COc1ccc(CNC(=O)C2=NN(c3ccc(C)cc3)C(=O)CN2)cc1` | 24.03% |
| 32 | `CC(C)(N)CN1CCC(c2nnc(CN3CCCC3)n2C2CC2)CC1` | -7.856% |
| 33 | `CN(Cc1noc(C(C)(C)C)n1)CC1CCN(CCO)CC1` | -22.23% |
| 34 | `CC(C)(C)c1n[nH]c(C2CN(C(=O)c3cc(Cl)c[nH]3)CCO2)n1` (stereo not given) | 0.5935% |
| 35 | `Cn1nc(C(=O)N2CCCC2)c2c1CN(CC1CCOCC1)C2` | -5.096% |
| 36 | `CCC1CN(C(=O)c2csc(-c3cnn(C)c3)n2)CCO1` (stereo not given) | 13.73% |
| 37 | `CC(NC(=O)c1cccs1)C(=O)NCc1ccccc1CN1CCCC1` (stereo not given) | 11.27% |
| 38 | `CC(C)(CO)CCCNC(=O)NC1(C)Cc2ccccc2C1` | -18.82% |
| 39 | `[H][C@@]12CCCO[C@]1([H])[C@@H](OCC1CC1)CN2C(=O)c1occc1C` | -11.73% |
| 40 | `O=C(CN1CCCNC1=O)N(Cc1ccccc1)CC(F)F` | -13.46% |
| 41 | `O=C(CN1CCCC(c2ccn[nH]2)C1)Nc1nc2c(s1)CCC2` (stereo not given) | 104% |
| 42 | `CC(C)NC1CCc2c(ccc(=O)n2CCN2CCOCC2)C1.O=C(O)C(F)(F)F.O=C(O)C(F)(F)F` (stereo not given) | -11.96% |
| 43 | `Cc1nc(CN2CCCCC2Cn2cccn2)nc2ccccc12` (stereo not given) | 49.4% |
| 44 | `O=C(NCCCNC(=O)C1CCC1)NCCn1cccc1` | -0.85% |
| 45 | `Cc1ccc(C)c(C(NC(=O)C2CC2)c2cccnc2)c1` (stereo not given) | 12.92% |
| 46 | `COc1ccccc1CN1CCc2c(nc(-c3ccccn3)[nH]c2=O)C1` | 93.29% |
| 47 | `Cc1cnccc1CN1C[C@@H](O)[C@H](Oc2ccccc2)C1` | 4.851% |
| 48 | `O=C1CN(C(=O)[C@H]2CC[C@]3(CC2)CNC(=O)c2ccccc2O3)CCN1` | 2.627% |
| 49 | `Cc1noc(-c2ccnc(Oc3ccc(CN4CCCC4)cc3F)c2)n1` | 23.8% |
| 50 | `COc1ccc(F)cc1CN(CC(N)=O)C(C)C` | 8.188% |
| 51 | `Cc1cncc(C(=O)N2CCCC(O)(CO)C2)c1` (stereo not given) | 2.477% |
| 52 | `Cc1ccc2c(n1)N(Cc1cccnc1)CCN(C(=O)C1CC=CC1)C2` | -10.58% |
| 53 | `COCCC(=O)N1CCC2(CCN(Cc3ccc(C)cc3)CC2)C1.O=C(O)C(F)(F)F` | -2.336% |
| 54 | `COc1ccc(C)cc1CN(C)CC(=O)NC1(C)CCS(=O)(=O)C1` (stereo not given) | -23.01% |
| 55 | `Cc1cccc(NC(=O)C2CCc3ccccc3N2)c1.Cl` (stereo not given) | 3.569% |
| 56 | `CN(C(=O)Nc1ccncc1)C1CCN(c2ccc(Cl)cc2)CC1` | 4.693% |
| 57 | `O=C(NCc1ccco1)c1cc(N2CC[C@@H](O)C2)ccn1` | 1.104% |
| 58 | `COc1ccc(COCC(=O)N2CCC(c3nncn3C)CC2)cc1` | -8.679% |
| 59 | `[H][C@]12CC[C@@]3(N=C(CC)NC3=O)[C@@]1([H])CN(C(=O)NCc1cccc(F)c1)C2` | -28.56% |
| 60 | `CC(NCc1ccccc1O)c1ccc(-n2ccnc2)cc1` (stereo not given) | -44.92% |
| 61 | `CN(Cc1cccc(F)c1)C(=O)CN1CCOC(Cn2cncn2)C1` (stereo not given) | -5.731% |
| 62 | `Fc1ccc(-c2nc(CNC3CCc4ncnn4C3)cs2)cc1` (stereo not given) | 5.293% |
| 63 | `CC(C)N1CCC(C(=O)N2CCC(c3ccc(F)cc3)C2)CC1` (stereo not given) | 3.419% |
| 64 | `COc1ccc2c(c1OC)Cc1c-2nc(N)c(C#N)c1C1CCOC1` (stereo not given) | 0.3796% |
| 65 | `O=C(Cc1cccs1)N1Cc2nc(COCC3CC3)oc2C1` | 26.46% |
| 66 | `CN(CCOc1ccc(F)cc1)S(=O)(=O)N1CCOCC1` | -6.913% |
| 67 | `CCN(C)C(=O)c1ncn2c(C3CCN(S(C)(=O)=O)CC3)ccnc12` | 9.952% |
| 68 | `Cc1cccc(C(=O)N2CCn3cc(CNC(=O)CC4CC4)nc3C2)n1` | -8.152% |
| 69 | `COCCOc1ccc(NC(=O)C2CC(=O)N(C(C)C)C2)cn1` (stereo not given) | -0.7285% |

Some entries from above, unchanged:

{"compound": "COc1ccc(C)cc1CN(C)CC(=O)NC1(C)CCS(=O)(=O)C1", "stereo": "stereo not given", "percent effect": -23.01}
{"compound": "O=C(Cc1cccs1)N1Cc2nc(COCC3CC3)oc2C1", "percent effect": 26.46}
{"compound": "O=C1CN(C(=O)[C@H]2CC[C@]3(CC2)CNC(=O)c2ccccc2O3)CCN1", "percent effect": 2.627}
{"compound": "CN(C(=O)Nc1ccncc1)C1CCN(c2ccc(Cl)cc2)CC1", "percent effect": 4.693}
{"compound": "CCC1CN(C(=O)c2csc(-c3cnn(C)c3)n2)CCO1", "stereo": "stereo not given", "percent effect": 13.73}
{"compound": "Cc1ccc2c(n1)N(Cc1cccnc1)CCN(C(=O)C1CC=CC1)C2", "percent effect": -10.58}
{"compound": "CC(C)NC1CCc2c(ccc(=O)n2CCN2CCOCC2)C1.O=C(O)C(F)(F)F.O=C(O)C(F)(F)F", "stereo": "stereo not given", "percent effect": -11.96}

The values are deposited in ChEMBL (CHEMBL3988442, “University of Dundee, Small-Polar-MMV Screening Library” (2021)).